These are yes or no findings as the source states them, for the method shown. Binding seen in cells or lysates may run through a third protein. Here binding means that the protein was enriched with, or labelled near, the bait; the list need not be complete.
B1: Calumenin (protein, UniProt O35887 20-315)
chain: KPTEKKDRVHHEPQLSDKVHNDAQNFDYDHDAFLGAEEAKSFDQLTPEESKERLGKIVSKIDDDKDGFVTVDELKGWIKFAQKRWIHEDVERQWKGHDLNEDGLVSWEEYKNATYGYVLDDPDPDDGFNYKQMMVRDERRFKMADKDGDLIATKEEFTAFLHPEEYDYMKDIVVQETMEDIDKNADGFIDLEEYIGDMYSHDGNADEPEWVKTEREQFVEFRDKNRDGKMDKEETKDWILPSDYDHAEAEARHLVYESDQNKDGKLTKEEIVDKYDLFVGSQATDFGEALVRHDEF
B2: Granulins (protein, UniProt P28798 18-589)
chain: TQCPDGQFCPVACCLDQGGANYSCCNPLLDTWPRITSHHLDGSCQTHGHCPAGYSCLLTVSGTSSCCPFSKGVSCGDGYHCCPQGFHCSADGKSCFQMSDNPLGAVQCPGSQFECPDSATCCIMVDGSWGCCPMPQASCCEDRVHCCPHGASCDLVHTRCVSPTGTHTLLKKFPAQKTNRAVSLPFSVVCPDAKTQCPDDSTCCELPTGKYGCCPMPNAICCSDHLHCCPQDTVCDLIQSKCLSKNYTTDLLTKLPGYPVKEVKCDMEVSCPEGYTCCRLNTGAWGCCPFAKAVCCEDHIHCCPAGFQCHTEKGTCEMGILQVPWMKKVIAPLRLPDPQILKSDTPCDDFTRCPTNNTCCKLNSGDWGCCPIPEAVCCSDNQHCCPQGFTCLAQGYCQKGDTMVAGLEKIPARQTTPLQIGDIGCDQHTSCPVGQTCCPSLKGSWACCQLPHAVCCEDRQHCCPAGYTCNVKARTCEKDVDFIQPPVLLTLGPKVGNVECGEGHFCHDNQTCCKDSAGVWACCPYLKGVCCRDGRHCCPGGFHCSARGTKCLRKKIPRWDMFLRDPVPRPLL
B3: Reticulocalbin-2 (protein, UniProt Q8BP92 26-320)
chain: SKAEELHYPQGEHRADYDREALLGVQEDVDEYVKLGHEEQQRRLQSIIKKIDSDSDGFLTENELSQWIQMSFKHYAMQEAKQQFVEYDKNSDGAVTWDEYNIQMYDRVIDFDENTALDDTEEGSFRQLHLKDKKRFEKANQDSGPGLSLEEFIAFEHPEEVDYMTEFVIQEALEEHDKNGDGFVSLEEFLGDYRRDPTANEDPEWILVEKDRFVNDYDKDNDGRLDPQELLSWVVPNNQGIAQEEALHLIDEMDLNSDKKLSEEEILENQDLFLTSEATDYGRQLHDDYFYHDEL
B4: Neurofilament light polypeptide (protein, UniProt P08551 1-543)
chain: MSSFGYDPYFSTSYKRRYVETPRVHISSVRSGYSTARSAYSSYSAPVSSSLSVRRSYSSSSGSLMPSLENLDLSQVAAISNDLKSIRTQEKAQLQDLNDRFASFIERVHELEQQNKVLEAELLVLRQKHSEPSRFRALYEQEIRDLRLAAEDATNEKQALQGEREGLEETLRNLQARYEEEVLSREDAEGRLMEARKGADEAALARAELEKRIDSLMDEIAFLKKVHEEEIAELQAQIQYAQISVEMDVSSKPDLSAALKDIRAQYEKLAAKNMQNAEEWFKSRFTVLTESAAKNTDAVRAAKDEVSESRRLLKAKTLEIEACRGMNEALEKQLQELEDKQNADISAMQDTINKLENELRSTKSEMARYLKEYQDLLNVKMALDIEIAAYRKLLEGEETRLSFTSVGSITSGYSQSSQVFGRSAYSGLQSSSYLMSARSFPAYYTSHVQEEQTEVEETIEATKAEEAKDEPPSEGEAEEEEKEKEEGEEEEGAEEEEAAKDESEDTKEEEEGGEGEEEDTKESEEEEKKEESAGEEQVAKKKD
B5: Elongation factor 1-delta (protein, UniProt P57776 1-281)
chain: MATNFLAHEKIWFDKFKYDDAERRFYEQMNGPVTSGSRQENGASVILRDIARARENIQKSLAGSSGPGASSGPGGDHSELIVRITSLEVENQNLRGVVQDLQQAISKLEARLSSLEKSSPTPRATAPQTQHVSPMRQVEPPTKKGATPAEDDEDKDIDLFGSDEEEEDKEAARLREERLRQYAEKKAKKPTLVAKSSILLDVKPWDDETDMAQLETCVRSIQLDGLVWGASKLVPVGYGIRKLQIQCVVEDDKVGTDLLEEEITKFEEHVQSVDIAAFDKI
B6: Myosin light polypeptide 6 (protein, UniProt Q60605 1-151)
chain: MCDFTEDQTAEFKEAFQLFDRTGDGKILYSQCGDVMRALGQNPTNAEVLKVLGNPKSDEMNVKVLDFEHFLPMLQTVAKNKDQGTYEDYVEGLRVFDKEGNGTVMGAEIRHVLVTLGEKMTEEEVEMLVAGHEDSNGCINYEAFVRHILSG
B7: Complement component 1 Q (C1qbp) (protein, UniProt O35658 71-278)
chain: LHTEGDKAFVEFLTDEIKEEKKIQKHKSLPKMSGDWELEVNGTEAKLLRKVAGEKITVTFNINNSIPPTFDGEEEPSQGQKAEEQEPERTSTPNFVVEVTKTDGKKTLVLDCHYPEDEIGHEDEAESDIFSIKEVSFQATGDSEWRDTNYTLNTDSLDWALYDHLMDFLADRGVDNTFADELVELSTALEHQEYITFLEDLKSFVKNQ
B8: Inter-alpha-trypsin inhibitor heavy chain H3 (protein, UniProt Q61704 34-649)
chain: SLPEGVVDGIEVYSTKISCKVTSRFAHNVVTTRAVNRADTAKEVSFDVELPKTAFITNFTLTIDGVTYPGNVKEKEVAQKQYEKAVSQGKTAGLVKASGRKLEKFTVSVNVAAGSKVTFELTYEELLKRNKGKYEMYLKVQPKQLVRHFEIDAHIFEPQGISMLDAEASFITNDLLGSALTKSFSGKKGHVSFKPSLDQQRSCPTCTDSLLNGDFTIVYDVNRESPGNVQIVNGYFVHFFAPQGLPVVPKNIVFVIDVSGSMSGRKIQQTREALLKILDDVKEDDYLNFILFSTDVTTWKDHLVQATPANLKEAKTFVKNIHDQSMTNINDGLLKGIEMLNKAREDHTVPERSTSIIIMLTDGDANTGESRPEKIQENVRNAIGGKFPLYNLGFGNNLNYNFLETLALENHGLARRIYEDSDANLQLQGFYEEVANPLLTNVEVEYPENAILDLTRNSYPHFYDGSEIVVAGRLVDRNMDNFKADVKGHGALNDLTFTEEVDMEEMDAALKEQGYIFGDYIERLWAYLTIEQLLEKRKNAKGDEKENITAEALDLSLKYHFVTPLTSMVVTKPEDNEDQTSIADKPGEEAIAETTTMSFLTTQQSSQSPYYYVDGD
B9: Ataxin-10 (protein, UniProt P28658 1-475)
chain: MAAPRMPPSRLSGIMVPAPIQDLEALRALTALFKEQRNRETAPRTIFQRVLDILKKSTHAVELACRDPSQVEHLASSLQLITECFRCLRNACIECSVNQNSIRNLDTIGVAVDLVLLFRELRVEQDSLLTAFRCGLQFLGNVASRNEESQSIVWVHAFPELFMSCLNHPDKKIVAYCSMILFTSLNAERMKDLEENLNIAINVIEAHQKHPASEWPFLIISDHFLKSPELVEAMYGKLSNQERITLLDIVIAKLVGEEQLTKDDISIFVRHAELIANSFMDQCRNVLKLTSEPHTEDKEALVTIRLLDVLCEMTSNTELLGYLQVFPGLMERVIDVLRVIHEVGKESTNIFSPSDSLKAEGDIEHMTEGFKSHLIRLIGNLCYKNKENQDKVNELDGIPLILDSSNIDDNNPFMMQWVVYAVRNLTEDNSQNQDVIAKMEEQGLADASLLKKMGFEIEKSGDKLILKSNNDIPPP
B10: Haptoglobin (protein, UniProt Q61646 19-347)
chain: VELGNDAMDFEDDSCPKPPEIANGYVEHLVRYRCRQFYRLRAEGDGVYTLNDEKQWVNTVAGEKLPECEAVCGKPKHPVDQVQRIIGGSMDAKGSFPWQAKMISRHGLTTGATLISDQWLLTTAKNLFLNHSETASAKDITPTLTLYVGKNQLVEIEKVVLHPNHSVVDIGLIKLKQRVLVTERVMPICLPSKDYIAPGRVGYVSGWGRNANFRFTDRLKYVMLPVADQDKCVVHYENSTVPEKKNLTSPVGVQPILNEHTFCAGLTKYQEDTCYGDAGSAFAIHDMEEDTWYAAGILSFDKSCAVAEYGVYVRATDLKDWVQETMAKN

Each binder was assayed against T1, Neuronal cell adhesion molecule 2 (NCAM2) (mouse (endogenous in cerebral cortex)) (UniProt O35136) (assay: affinity purification with mass spectrometry; NCAM2 precipitated from the membrane fraction (lysis buffer with 1% Triton X-100, 150 mM NaCl) of postnatal mouse cortex with magnetic beads conjugated with anti-NCAM2.1 (EB06991) or anti-NCAM2 (AF778), o/n at 4 °C; urea elution, trypsin, LC-MS/MS, FDR ≤ 0.01%; control: non-conjugated beads).
T1 sequence: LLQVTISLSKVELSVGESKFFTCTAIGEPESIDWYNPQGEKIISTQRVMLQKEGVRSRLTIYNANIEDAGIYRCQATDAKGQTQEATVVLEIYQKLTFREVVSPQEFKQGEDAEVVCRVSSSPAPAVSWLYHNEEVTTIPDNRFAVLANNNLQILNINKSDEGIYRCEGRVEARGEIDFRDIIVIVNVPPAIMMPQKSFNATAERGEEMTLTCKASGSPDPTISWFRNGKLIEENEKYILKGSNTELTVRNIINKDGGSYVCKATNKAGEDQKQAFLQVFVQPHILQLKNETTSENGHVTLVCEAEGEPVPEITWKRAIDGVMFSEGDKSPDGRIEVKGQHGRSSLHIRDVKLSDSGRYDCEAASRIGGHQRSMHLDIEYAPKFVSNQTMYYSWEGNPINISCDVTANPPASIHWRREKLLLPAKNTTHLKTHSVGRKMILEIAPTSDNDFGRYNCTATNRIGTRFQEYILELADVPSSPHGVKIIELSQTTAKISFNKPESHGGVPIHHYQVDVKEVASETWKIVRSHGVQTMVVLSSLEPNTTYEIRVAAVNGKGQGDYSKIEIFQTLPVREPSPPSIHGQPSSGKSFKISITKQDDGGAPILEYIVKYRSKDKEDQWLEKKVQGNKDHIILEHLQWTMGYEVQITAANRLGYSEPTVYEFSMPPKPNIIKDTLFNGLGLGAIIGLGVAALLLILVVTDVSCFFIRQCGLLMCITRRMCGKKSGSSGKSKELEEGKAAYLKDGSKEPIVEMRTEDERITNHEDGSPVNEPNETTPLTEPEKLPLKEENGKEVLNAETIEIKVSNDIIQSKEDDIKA
B1 was tested, and the binding was “binds”.
B2 was tested, and the binding was “binds”.
For B3, the binding was “binds”.
With B4 the binding was “binds”.
With B5 the binding was “binds”.
In the case of B6, the binding is reported as “binds”.
With B7 the binding was “binds”.
In the case of B8, the binding is reported as “binds”.
In the case of B9, the binding is reported as “binds”.
B10 was tested, and the binding was “binds”.

— article PMC8304497
